Assay: general procedure: Boc solid-phase peptide synthesis; 1.4% crosslinked 100-200 mesh phenolic resin (acetoxystyrene/styrene/divinylbenzene copolymer, deacetylated); peptide ph; DCCI (with pyridine, N-methyl morpholine or HOBt)
Conditions: whole synthesis, overall, based on methionine originally coupled to the resin, hydrochloride (lyophilised from HCl)

## BOC-Tyr-Gly-Gly-Phe-Met-OH
  isolated yield: 58%

Source: patent US4304715A (priority 1979, dated 1981)
